# Drug screen on melanoma cell lines: apoptosis marker

Every entry is a combination with BI-D1870 at 1 µM: CC(C)CCN1c2nc(Nc3cc(F)c(O)c(F)c3)ncc2N(C)C(=O)C1C (stereo unspecified)

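Human melanoma cell lines in 1,536-well plates were treated with two drugs together for 72 h, then fixed, stained and imaged. The read-out is the fraction of cleaved-PARP-positive nuclei, in % of that fraction in the DMSO control; 200 means twice the control level of this apoptosis marker. Concentrations were fixed for each drug; these are the higher of two levels. The file gives one value for each pair and line, without errors, so small differences may be noise. Basal and induced levels differ widely between cell lines.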 Only some of the drugs and lines screened are listed, without regard to their results. A dash means that no value is listed here.

| Partner | WM115 | WM1745 | SK-MEL-2 | MZ2-MEL | WM1716 | SK-MEL-30 | IPC-298 | A2058 | UACC-257 | A375 | SK-MEL-28 | LB2518-MEL | A101D | IST-MEL1 | G-361 |
|---|---|---|---|---|---|---|---|---|---|---|---|---|---|---|---|
| COc1ccc(COc2ccc(Cc3cnc(N)nc3N)cc2OC)cc1 at 5 µM | 44.7 | 342 | 87.9 | 60.5 | 68.4 | 48.8 | 102 | 89.1 | 45.3 | 43.8 | 46.3 | 153 | 272 | 123 | 96.3 |
| COc1cc2c(Oc3ccc4[nH]c(C)cc4c3F)ncnc2cc1OCCCN1CCCC1 at 2 µM | 101 | 297 | 130 | 179 | 187 | 115 | 75.3 | 138 | 78.5 | 36.7 | 151 | 192 | 151 | 66.5 | 148 |
| Cc1cc(Nc2cc(N3CCN(C)CC3)nc(Sc3ccc(NC(=O)C4CC4)cc3)n2)n[nH]1 at 0.03 µM | 314 | - | - | - | 160 | 87.6 | 101 | 94.4 | 29.2 | 91.4 | 84.6 | - | 330 | 230 | 79.9 |
| Nc1nc(F)nc2c1ncn2[C@@H]1O[C@H](CO)[C@@H](O)[C@@H]1O at 1 µM | 98.8 | - | 3190 | 38.7 | 195 | 577 | 73.8 | 167 | 748 | 380 | 2410 | 115 | 121 | 357 | 146 |
| O=C1NC(=O)/C(=C/c2ccc(-c3ccc(F)cc3O)o2)S1 at 5 µM | 20.7 | 123 | 37.7 | 86.6 | 42.2 | 136 | 242 | 125 | 135 | 275 | 95.1 | 67.5 | 134 | 91.9 | 201 |
| COc1ccc(-c2ccc3c(N4CCOCC4)nc(N4C[C@@H](C)O[C@@H](C)C4)nc3n2)cc1CO at 0.1 µM | 60.4 | 102 | 31.0 | 90.3 | 44.8 | 179 | 111 | 152 | 49.6 | 10.9 | 96.7 | 76.8 | 154 | 144 | 124 |
| CC(C)C[C@H](NC(=O)[C@H](Cc1ccccc1)NC(=O)c1cnccn1)B(O)O at 0.005 µM | 345 | - | 188 | 17900 | 11500 | 406 | 2080 | 2110 | 35.9 | 133 | 539 | 2240 | 492 | 539 | 10900 |
| c1cc(-c2cnn3cc(-c4ccc(OCCN5CCCCC5)cc4)cnc23)ccn1 at 2 µM | 118 | 173 | 55.7 | 42.9 | 124 | 133 | 26.8 | 231 | 54.4 | 51.2 | 59.6 | 88.6 | 175 | 151 | 271 |
| CC(=O)O[C@@]12CO[C@@H]1C[C@H](O)[C@@]1(C)C(=O)[C@H](O)C3=C(C)[C@@H](OC(=O)[C@H](O)[C@@H](NC(=O)OC(C)(C)C)c4ccccc4)C[C@@](O)([C@@H](OC(=O)c4ccccc4)[C@H]21)C3(C)C at 0.0005 µM | 303 | - | 758 | 920 | 771 | 504 | 211 | 3980 | 149 | 202 | 738 | 115 | 768 | 338 | 426 |
| O=c1[nH]nc(Sc2ncc([N+](=O)[O-])s2)n1-c1ccc2c(c1)OCCO2 at 1 µM | 111 | - | 123 | 117 | 155 | 109 | 85.0 | 205 | 57.2 | 90.2 | 44.1 | 65.2 | 182 | 325 | 196 |
| Nc1cccc2c1CN(C1CCC(=O)NC1=O)C2=O (stereo unspecified) at 5 µM | 57.4 | 107 | 240 | 114 | 63.5 | 50.6 | 54.4 | 137 | 24.4 | 56.8 | 122 | 131 | 95.5 | 69.6 | 151 |
| CO[C@H]1C[C@@H]2CC[C@@H](C)[C@@](O)(O2)C(=O)C(=O)N2CCCC[C@H]2C(=O)O[C@H]([C@H](C)C[C@@H]2CC[C@@H](OCCO)[C@H](OC)C2)CC(=O)[C@H](C)/C=C(\C)[C@@H](O)[C@@H](OC)C(=O)[C@H](C)C[C@H](C)/C=C/C=C/C=C/1C at 0.1 µM | 165 | - | - | - | 113 | 151 | 200 | 164 | 122 | 36.8 | 154 | - | 812 | 185 | 215 |
| NC(=O)Nc1cc(-c2cccc(F)c2)sc1C(=O)N[C@H]1CCCNC1 at 0.1 µM | 125 | 336 | 134 | 172 | 527 | 161 | 46.9 | 192 | 14.6 | 241 | 203 | 547 | 509 | 169 | 49.1 |
| Cc1nc(Nc2ncc(C(=O)Nc3c(C)cccc3Cl)s2)cc(N2CCN(CCO)CC2)n1 at 0.02 µM | 174 | 198 | 197 | 193 | 195 | 115 | 123 | 337 | 24.2 | 126 | 92.7 | 120 | 79.7 | 356 | 109 |
| C[C@@H](Oc1cc(-c2cnn(C3CCNCC3)c2)cnc1N)c1c(Cl)ccc(F)c1Cl at 1 µM | 112 | - | 136 | 139 | 215 | 130 | 149 | 219 | 35.0 | 57.2 | 33.9 | 123 | 230 | 120 | 173 |
| NC1(c2ccc(-c3nc4ccn5c(=O)[nH]nc5c4cc3-c3ccccc3)cc2)CCC1 at 2 µM | 71.5 | - | 148 | 81.3 | 131 | 147 | 56.4 | 158 | 25.2 | 80.8 | 165 | 98.6 | 179 | 231 | 187 |
| C/C(O)=C(\C#N)C(=O)Nc1cc(Br)ccc1Br at 10 µM | 171 | 120 | 90.2 | 58.8 | 3880 | 78.5 | 52.2 | 112 | 15.6 | 14.4 | 130 | 90.5 | 89.5 | 243 | 85.3 |
| C[C@@H](N)c1ccc(C(=O)Nc2ccnc3[nH]ccc23)cc1 at 2 µM | 56.7 | - | 101 | 311 | 4270 | 203 | 52.0 | 245 | 150 | 223 | 62.8 | 119 | 347 | 107 | 176 |
| C[C@]12O[C@H](C[C@]1(O)CO)n1c3ccccc3c3c4c(c5c6ccccc6n2c5c31)CNC4=O at 0.02 µM | 96.1 | - | 226 | 85.9 | 99.8 | 235 | 157 | 164 | 102 | 132 | 229 | 148 | 727 | 104 | 180 |
| CCCCCCCCCCCC1=C(O)C(=O)C=C(O)C1=O at 6 µM | 87.7 | 108 | 178 | 166 | 54.6 | 9.1 | 28.7 | 79.1 | 116 | 122 | 61.4 | 49.4 | 108 | 34.8 | 178 |
| Cn1c(=O)n(-c2ccc(C(C)(C)C#N)cc2)c2c3cc(-c4cnc5ccccc5c4)ccc3ncc21 at 0.02 µM | 115 | - | 111 | 78.6 | 76.6 | 70.2 | 91.8 | 101 | 22.9 | 296 | 91.6 | 104 | 775 | 127 | 236 |
| CN(c1ncccc1CNc1nc(Nc2ccc3c(c2)CC(=O)N3)ncc1C(F)(F)F)S(C)(=O)=O at 0.4 µM | 83.7 | - | 209 | 96.0 | 154 | 63.8 | 181 | 86.5 | 33.1 | 61.2 | 68.2 | 121 | 151 | 141 | 242 |
| Cc1cc([N+](=O)[O-])ccc1NS(=O)(=O)c1cc(Cl)ccc1Cl at 5 µM | 70.7 | 199 | 57.3 | 114 | 49.3 | 51.2 | 38.5 | 130 | 184 | 42.1 | 116 | 76.3 | 62.0 | 95.5 | 375 |
| Cc1ccc(NC(=O)c2cccc(N(C)C)c2)cc1NC(=O)c1ccc(O)cc1 at 10 µM | 91.9 | 146 | 82.6 | 197 | 138 | 141 | 52.8 | 179 | 124 | 149 | 92.3 | 132 | 344 | 108 | 41.6 |
| CS(=O)(=O)c1ccc(C(=O)Nc2ccc(Cl)c(-c3ccccn3)c2)c(Cl)c1 at 5 µM | 53.6 | - | 126 | 277 | 112 | 98.3 | 102 | 108 | 94.5 | 83.6 | 127 | 171 | 96.5 | 189 | 333 |
| O=C(O)c1ccc(-c2c[nH]c3ncc(-c4ccccc4)cc23)cc1C1CCCC1 at 0.8 µM | 55.8 | 115 | 110 | 82.2 | 97.5 | 112 | 57.1 | 123 | 37.3 | 77.4 | 33.8 | 73.0 | 306 | 355 | 213 |

Data from the primary screen of doi:10.1371/journal.pone.0140310, rounded.